No constants are given. Whether binding was seen depends on the method and setting. Binding seen in cells or lysates may run through a third protein. A yes stands for co-enrichment or nearness to the bait. Other partners may have been found.
Legend:
Assay in all cases: affinity purification with mass spectrometry; TAP purification of TAP-tagged INO80 subunits from wild-type S. cerevisiae grown in YPD; MudPIT, spectral counts, dNSAF
[1] = target: Ino80 (S. cerevisiae) (UniProt P53115)
[2] = target: T1, Nhp10 (S. cerevisiae) (UniProt Q03435)
T1 sequence: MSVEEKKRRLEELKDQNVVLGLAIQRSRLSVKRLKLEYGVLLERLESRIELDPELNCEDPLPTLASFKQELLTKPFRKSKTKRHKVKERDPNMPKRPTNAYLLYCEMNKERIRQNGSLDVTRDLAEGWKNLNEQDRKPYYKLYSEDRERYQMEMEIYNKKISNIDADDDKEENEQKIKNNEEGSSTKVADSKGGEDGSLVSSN

Chains of the proteins cited; added tags and fusions are not shown.
UniProt P53115: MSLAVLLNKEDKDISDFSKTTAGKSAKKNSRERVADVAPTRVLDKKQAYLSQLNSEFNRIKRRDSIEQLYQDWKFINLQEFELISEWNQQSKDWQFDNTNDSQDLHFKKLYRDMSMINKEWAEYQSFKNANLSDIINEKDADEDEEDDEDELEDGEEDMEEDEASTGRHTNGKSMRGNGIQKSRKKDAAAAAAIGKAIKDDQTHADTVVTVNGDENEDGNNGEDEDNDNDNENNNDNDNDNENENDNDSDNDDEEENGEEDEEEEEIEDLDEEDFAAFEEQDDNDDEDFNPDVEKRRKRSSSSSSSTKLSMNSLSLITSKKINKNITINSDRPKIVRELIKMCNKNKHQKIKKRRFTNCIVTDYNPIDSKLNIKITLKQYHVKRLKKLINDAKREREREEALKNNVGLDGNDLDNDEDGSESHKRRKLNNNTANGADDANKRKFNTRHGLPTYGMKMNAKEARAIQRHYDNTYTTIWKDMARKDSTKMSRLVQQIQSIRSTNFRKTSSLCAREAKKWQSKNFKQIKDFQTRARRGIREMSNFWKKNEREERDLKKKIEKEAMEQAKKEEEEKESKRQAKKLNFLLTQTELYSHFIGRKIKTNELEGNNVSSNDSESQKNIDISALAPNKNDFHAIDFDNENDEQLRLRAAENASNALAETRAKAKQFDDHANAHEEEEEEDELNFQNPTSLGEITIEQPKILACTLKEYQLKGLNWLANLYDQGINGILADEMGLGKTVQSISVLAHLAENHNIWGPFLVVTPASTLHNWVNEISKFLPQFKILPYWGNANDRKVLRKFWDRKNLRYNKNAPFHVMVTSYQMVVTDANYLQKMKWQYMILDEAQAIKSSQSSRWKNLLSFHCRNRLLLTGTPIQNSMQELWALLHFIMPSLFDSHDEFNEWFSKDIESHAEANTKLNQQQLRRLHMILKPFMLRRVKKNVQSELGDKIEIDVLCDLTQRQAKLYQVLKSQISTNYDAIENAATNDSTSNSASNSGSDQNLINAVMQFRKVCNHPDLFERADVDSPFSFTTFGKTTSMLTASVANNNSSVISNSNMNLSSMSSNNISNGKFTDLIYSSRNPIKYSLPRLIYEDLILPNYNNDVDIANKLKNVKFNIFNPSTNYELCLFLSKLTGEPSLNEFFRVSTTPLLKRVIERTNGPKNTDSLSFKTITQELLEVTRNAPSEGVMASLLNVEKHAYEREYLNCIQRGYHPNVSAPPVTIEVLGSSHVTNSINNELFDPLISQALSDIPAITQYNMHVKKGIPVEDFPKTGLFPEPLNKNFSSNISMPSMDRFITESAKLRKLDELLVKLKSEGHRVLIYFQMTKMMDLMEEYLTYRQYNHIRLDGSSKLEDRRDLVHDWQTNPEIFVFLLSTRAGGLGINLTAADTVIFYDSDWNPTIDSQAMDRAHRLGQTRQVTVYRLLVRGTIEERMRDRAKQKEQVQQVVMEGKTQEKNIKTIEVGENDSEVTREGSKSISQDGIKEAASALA
UniProt P32591: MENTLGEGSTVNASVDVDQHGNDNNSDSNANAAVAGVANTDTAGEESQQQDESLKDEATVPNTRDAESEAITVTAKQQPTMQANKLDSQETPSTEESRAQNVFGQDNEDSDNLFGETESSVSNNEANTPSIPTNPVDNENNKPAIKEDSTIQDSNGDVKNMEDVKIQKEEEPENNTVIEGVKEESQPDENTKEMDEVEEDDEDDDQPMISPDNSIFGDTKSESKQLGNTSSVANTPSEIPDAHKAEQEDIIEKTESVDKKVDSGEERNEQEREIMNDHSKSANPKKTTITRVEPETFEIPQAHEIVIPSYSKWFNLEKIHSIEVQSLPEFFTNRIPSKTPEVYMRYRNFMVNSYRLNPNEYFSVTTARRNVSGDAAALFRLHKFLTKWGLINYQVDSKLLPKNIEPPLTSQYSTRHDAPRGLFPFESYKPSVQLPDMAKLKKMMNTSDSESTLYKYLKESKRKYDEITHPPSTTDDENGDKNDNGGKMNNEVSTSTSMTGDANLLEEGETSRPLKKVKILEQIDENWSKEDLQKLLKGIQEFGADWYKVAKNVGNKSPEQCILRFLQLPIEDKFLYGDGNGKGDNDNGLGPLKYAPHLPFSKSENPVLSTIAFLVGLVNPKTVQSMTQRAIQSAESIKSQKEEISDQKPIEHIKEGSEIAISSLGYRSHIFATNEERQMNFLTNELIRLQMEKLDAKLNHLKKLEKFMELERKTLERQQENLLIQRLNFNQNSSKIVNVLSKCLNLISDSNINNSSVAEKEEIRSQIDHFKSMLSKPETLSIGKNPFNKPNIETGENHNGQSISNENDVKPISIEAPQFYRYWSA
UniProt P53628: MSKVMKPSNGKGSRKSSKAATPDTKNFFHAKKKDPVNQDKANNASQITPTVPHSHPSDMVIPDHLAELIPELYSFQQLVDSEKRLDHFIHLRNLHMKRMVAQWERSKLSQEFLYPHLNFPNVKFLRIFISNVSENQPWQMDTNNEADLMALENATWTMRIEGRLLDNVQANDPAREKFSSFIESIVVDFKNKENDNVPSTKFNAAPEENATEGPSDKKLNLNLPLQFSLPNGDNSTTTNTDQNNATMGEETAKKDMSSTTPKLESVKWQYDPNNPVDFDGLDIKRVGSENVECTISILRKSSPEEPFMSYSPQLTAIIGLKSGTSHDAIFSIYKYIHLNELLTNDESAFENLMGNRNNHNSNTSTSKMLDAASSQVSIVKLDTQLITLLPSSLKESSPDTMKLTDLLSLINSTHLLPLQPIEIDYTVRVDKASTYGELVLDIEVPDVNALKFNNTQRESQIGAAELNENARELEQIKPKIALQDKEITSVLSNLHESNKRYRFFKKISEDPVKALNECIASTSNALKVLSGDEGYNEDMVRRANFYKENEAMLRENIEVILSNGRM

[3] = target: T2, Ies5 (S. cerevisiae) (UniProt P40060)
T2 sequence: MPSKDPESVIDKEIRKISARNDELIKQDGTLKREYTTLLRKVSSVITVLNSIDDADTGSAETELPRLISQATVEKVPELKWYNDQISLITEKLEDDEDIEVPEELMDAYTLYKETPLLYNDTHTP

[4] = target: T3, Ies3 (S. cerevisiae) (UniProt Q12345)
T3 sequence: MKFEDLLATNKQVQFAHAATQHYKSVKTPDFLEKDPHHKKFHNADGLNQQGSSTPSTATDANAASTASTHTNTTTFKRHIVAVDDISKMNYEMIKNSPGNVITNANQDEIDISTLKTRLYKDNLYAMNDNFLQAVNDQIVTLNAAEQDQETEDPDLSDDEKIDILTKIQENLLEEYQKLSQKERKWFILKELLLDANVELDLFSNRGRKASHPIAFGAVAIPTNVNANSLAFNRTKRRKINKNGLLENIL

[5] = target: T4, Ies1 (S. cerevisiae) (UniProt P43579)
T4 sequence: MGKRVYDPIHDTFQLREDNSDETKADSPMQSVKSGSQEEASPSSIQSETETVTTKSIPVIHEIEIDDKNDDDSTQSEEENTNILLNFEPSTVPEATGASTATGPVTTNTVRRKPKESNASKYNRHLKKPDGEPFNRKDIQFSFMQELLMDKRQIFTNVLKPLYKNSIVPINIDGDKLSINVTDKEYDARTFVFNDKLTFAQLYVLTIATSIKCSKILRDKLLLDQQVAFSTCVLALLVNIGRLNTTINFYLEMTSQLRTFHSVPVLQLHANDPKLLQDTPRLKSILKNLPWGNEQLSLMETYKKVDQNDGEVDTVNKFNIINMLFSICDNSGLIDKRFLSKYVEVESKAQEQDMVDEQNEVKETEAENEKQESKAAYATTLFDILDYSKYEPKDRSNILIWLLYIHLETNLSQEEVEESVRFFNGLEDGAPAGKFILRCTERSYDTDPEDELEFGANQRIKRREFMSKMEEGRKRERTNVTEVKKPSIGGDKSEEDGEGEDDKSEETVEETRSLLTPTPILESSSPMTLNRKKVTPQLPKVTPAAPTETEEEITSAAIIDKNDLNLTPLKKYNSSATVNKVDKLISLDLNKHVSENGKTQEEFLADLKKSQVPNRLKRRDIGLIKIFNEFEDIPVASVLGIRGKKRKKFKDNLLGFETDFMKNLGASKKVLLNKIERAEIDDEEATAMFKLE

[6] = target: T5, Ies2 (S. cerevisiae) (UniProt P40154)
T5 sequence: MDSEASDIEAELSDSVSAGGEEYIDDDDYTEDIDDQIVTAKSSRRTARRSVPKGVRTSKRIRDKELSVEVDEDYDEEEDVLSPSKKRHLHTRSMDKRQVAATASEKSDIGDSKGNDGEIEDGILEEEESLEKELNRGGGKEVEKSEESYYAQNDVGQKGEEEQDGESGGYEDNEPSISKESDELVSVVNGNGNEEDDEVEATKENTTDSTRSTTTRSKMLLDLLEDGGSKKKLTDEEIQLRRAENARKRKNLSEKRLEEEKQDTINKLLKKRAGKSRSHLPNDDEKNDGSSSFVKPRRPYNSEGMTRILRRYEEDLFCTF

[7] = target: T6, Ies6 (S. cerevisiae) (UniProt P32617)
T6 sequence: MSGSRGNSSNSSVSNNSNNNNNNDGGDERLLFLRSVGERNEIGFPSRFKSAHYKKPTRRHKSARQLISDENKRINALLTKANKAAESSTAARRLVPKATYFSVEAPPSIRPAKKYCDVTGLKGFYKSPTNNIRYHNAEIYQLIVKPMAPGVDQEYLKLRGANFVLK

Measured: binding

Swi3 (from UniProt P32591 1-825)
binds: [1]

Ino80 (from UniProt P53115 1-1489)
binds: [2] | [3] | [4] | [5]

Snf12 (from UniProt P53628 1-566)
binds: [1]

Act1 (from UniProt P60010 1-375)
not listed: [1]
binds: all other assays above

B1: Arp4 (protein, UniProt P80428 1-489)
chain: MSNAALQVYGGDEVSAVVIDPGSYTTNIGYSGSDFPQSILPSVYGKYTADEGNKKIFSEQSIGIPRKDYELKPIIENGLVIDWDTAQEQWQWALQNELYLNSNSGIPALLTEPVWNSTENRKKSLEVLLEGMQFEACYLAPTSTCVSFAAGRPNCLVVDIGHDTCSVSPIVDGMTLSKSTRRNFIAGKFINHLIKKALEPKEIIPLFAIKQRKPEFIKKTFDYEVDKSLYDYANNRGFFQECKETLCHICPTKTLEETKTELSSTAKRSIESPWNEEIVFDNETRYGFAEELFLPKEDDIPANWPRSNSGVVKTWRNDYVPLKRTKPSGVNKSDKKVTPTEEKEQEAVSKSTSPAANSADTPNETGKRPLEEEKPPKENNELIGLADLVYSSIMSSDVDLRATLAHNVVLTGGTSSIPGLSDRLMTELNKILPSLKFRILTTGHTIERQYQSWLGGSILTSLGTFHQLWVGKKEYEEVGVERLLNDRFR
not listed: [1]
binds: all other assays above

B2: Arp5 (protein, UniProt P53946 1-755)
chain: MSSRDASLTPLKAVVIDDPPLRQTPEPFDEQSAYNPQSPIAIDFGSSKLRAGFVNHATPTHIFPNALTKFRDRKLNKNFTFVGNDTLLDQAVRSQSRSPFDGPFVTNWNLTEEILDYTFHHLGVVPDNGIPNPILLTERLATVQSQRTNWYQILFETYNVPGVTFGIDSLFSFYNYNPSGNKTGLVISCGHEDTNVIPVVDGAGILTDAKRINWGGHQAVDYLNDLMALKYPYFPTKMSYLQYETMYKDYCYVSRNYDEDIEKILTLENLDTNDVVVEAPFTEVLQPQKTEEELRIQAEKRKETGKRLQEQARLKRMEKLVQKQEEFEYFSKVRDQLIDEPKKKVLSVLQNAGFDDERDFKKYLHSLEQSLKKAQMVEAEDDSHLDEMNEDKTAQKFDLLDIADEDLNEDQIKEKRKQRFLKASQDARQKAKEEKERVAKEEEEKKLKEQQWRETDLNGWIKDKRLKLNKLIKRRKEKLKLRDEMKDRKSQVSQNRMKNLASLAEDNVKQGAKRNRHQATIDNDPNDTFGANDEDWLIYTDITQNPEAFEEALEYEYKDIVELERLLLEHDPNFTEEDTLEAQYDWRNSILHLFLRGPRPHDSENIHEQHQMHLNVERIRVPEVIFQPTMGGQDQAGICELSETILLKKFGSQPGKLSQTSIDMVNNVLITGGNAKVPGLKERIVKEFTGFLPTGTNITVNMSSDPSLDAWKGMAALARNEEQYRKTVISKKEYEEYGPEYIKEHKLGNTKYFED
not listed: [1]
binds: all other assays above

B3: Arp8 (protein, UniProt Q12386 1-881)
chain: MSQEEAESSIIYEEPIDIPLEDDDDEDELEEENSVPLSSQADQENAENESDDSVDNVVGSETPRSVTGLSVDPRDVADEEDEDEEGEDEDEDEDDNDVDNEDENDNDNANENENELGSSRDKRAPPAVQTSKRYKKYPKLDPAKAPPGKKVPLHLLEKRRLGRIKAAEEFAKTLKKIGIEKVETTTLPATGLFQPLMLINQKNYSSDYLKKDDQIFALRDRKFLRNNNTSQISSTNTPDVIDLKSLPHSEASAAPLNDEIDLNDPTATIVIHPGSNSIKIGFPKDDHPVVVPNCVAVPKKWLDLENSEHVENVCLQREQSEEFNNIKSEMEKNFRERMRYYKRKVPGNAHEQVVSFNENSKPEIISEKNDPSPIEWIFDDSKLYYGSDALRCVDEKFVIRKPFRGGSFNVKSPYYKSLAELISDVTKLLEHALNSETLNVKPTKFNQYKVVLVIPDIFKKSHVETFIRVLLTELQFQAVAIIQESLATCYGAGISTSTCVVNIGAAETRIACVDEGTVLEHSAITLDYGGDDITRLFALFLLQSDFPLQDWKIDSKHGWLLAERLKKNFTTFQDADVAVQLYNFMNRSPNQPTEKYEFKLFDEVMLAPLALFFPQIFKLIRTSSHKNSSLEFQLPESRDLFTNELNDWNSLSQFESKEGNLYCDLNDDLKILNRILDAHNIIDQLQDKPENYGNTLKENFAPLEKAIVQSIANASITADVTRMNSFYSNILIVGGSSKIPALDFILTDRINIWRPSLLSSASFPQFYKKLTKEIKDLEGHYVNAPDKTEDENKQILQAQIKEKIVEELEEQHQNIEHQNGNEHIFPVSIIPPPRDMNPALIIWKGASVLAQIKLVEELFITNSDWDVHGSRILQYKCIFTY
not listed: [1] | [7]
binds: all other assays above

B4: Ies4 (protein, UniProt Q08561 1-116)
chain: MSQESSVLSESQEQLANNPKIEDTSPPSANSRDNSKPVLPWDYKNKAIEIKSFSGYKVNFTGWIRRDVREERQRGSEFTASDVKGSDDKATRKKEPADEDPEVKQLEKEGEDGLDS
not listed: [1]
binds: all other assays above

B5: Ies6 (protein, UniProt P32617 1-166)
chain: MSGSRGNSSNSSVSNNSNNNNNNDGGDERLLFLRSVGERNEIGFPSRFKSAHYKKPTRRHKSARQLISDENKRINALLTKANKAAESSTAARRLVPKATYFSVEAPPSIRPAKKYCDVTGLKGFYKSPTNNIRYHNAEIYQLIVKPMAPGVDQEYLKLRGANFVLK
not listed: [1] | [7]
binds: all other assays above

B6: Eno2 (protein, UniProt P00925 1-437)
chain: MAVSKVYARSVYDSRGNPTVEVELTTEKGVFRSIVPSGASTGVHEALEMRDEDKSKWMGKGVMNAVNNVNNVIAAAFVKANLDVKDQKAVDDFLLSLDGTANKSKLGANAILGVSMAAARAAAAEKNVPLYQHLADLSKSKTSPYVLPVPFLNVLNGGSHAGGALALQEFMIAPTGAKTFAEAMRIGSEVYHNLKSLTKKRYGASAGNVGDEGGVAPNIQTAEEALDLIVDAIKAAGHDGKVKIGLDCASSEFFKDGKYDLDFKNPESDKSKWLTGVELADMYHSLMKRYPIVSIEDPFAEDDWEAWSHFFKTAGIQIVADDLTVTNPARIATAIEKKAADALLLKVNQIGTLSESIKAAQDSFAANWGVMVSHRSGETEDTFIADLVVGLRTGQIKTGAPARSERLAKLNQLLRIEEELGDKAVYAGENFHHGDKL
binds: [1]

Source: paper PMC5341041
